These are yes or no findings as the source states them, for the method shown. In cells and extracts the contact can be indirect. Here binding means that the protein was enriched with, or labelled near, the bait; the list need not be complete.

Sequences of proteins named here, by UniProt entry; tags and fusion partners are left off. A change or cut given only in a name is not applied to a line headed by its entry.
UniProt P13667: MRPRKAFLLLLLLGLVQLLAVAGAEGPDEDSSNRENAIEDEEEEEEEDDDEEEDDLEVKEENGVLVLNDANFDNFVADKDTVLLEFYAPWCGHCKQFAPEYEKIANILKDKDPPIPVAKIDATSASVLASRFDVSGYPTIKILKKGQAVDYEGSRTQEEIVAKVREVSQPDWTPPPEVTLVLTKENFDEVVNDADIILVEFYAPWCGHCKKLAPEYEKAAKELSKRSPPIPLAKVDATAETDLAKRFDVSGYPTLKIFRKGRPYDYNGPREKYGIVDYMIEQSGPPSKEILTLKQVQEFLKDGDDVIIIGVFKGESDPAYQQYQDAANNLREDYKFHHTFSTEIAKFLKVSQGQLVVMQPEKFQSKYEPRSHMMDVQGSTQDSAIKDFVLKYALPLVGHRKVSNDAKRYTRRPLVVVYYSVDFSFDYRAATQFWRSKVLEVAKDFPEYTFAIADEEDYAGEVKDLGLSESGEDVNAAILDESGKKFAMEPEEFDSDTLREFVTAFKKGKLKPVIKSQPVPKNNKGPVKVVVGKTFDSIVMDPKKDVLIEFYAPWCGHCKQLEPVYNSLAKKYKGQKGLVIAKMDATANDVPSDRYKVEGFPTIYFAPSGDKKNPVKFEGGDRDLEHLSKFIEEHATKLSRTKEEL
UniProt P15692: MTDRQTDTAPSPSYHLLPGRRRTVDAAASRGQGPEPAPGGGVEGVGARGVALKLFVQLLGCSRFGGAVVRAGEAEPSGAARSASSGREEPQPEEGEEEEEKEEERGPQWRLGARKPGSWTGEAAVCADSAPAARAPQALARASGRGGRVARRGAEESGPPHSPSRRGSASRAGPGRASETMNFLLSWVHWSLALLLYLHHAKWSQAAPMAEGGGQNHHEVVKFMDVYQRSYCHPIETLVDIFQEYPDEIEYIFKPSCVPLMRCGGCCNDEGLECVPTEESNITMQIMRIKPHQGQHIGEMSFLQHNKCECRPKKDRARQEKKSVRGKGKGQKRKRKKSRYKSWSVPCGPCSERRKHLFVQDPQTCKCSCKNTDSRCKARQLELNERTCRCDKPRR

This assay has as its target 3Flag-tagged mutant PDIA4 (CXXC to CXXA at the three active sites) (human) (UniProt P13667). As to the kind of experiment: affinity purification with mass spectrometry; anti-Flag immunoprecipitation from U87 cells stably overexpressing Flag-mPDIA4; cells rinsed with PBS with 20 mM NEM, NP40 lysis buffer with 0.5 mM PMSF; LC-ESI-MS/MS; hits of normal rabbit IgG subtracted.

For “human VEGFA (endogenous, U87 cells) (from UniProt P15692 1-395) (ligand)”, the binding result was “binds”.

The record behind these values is publication PMC10061982.
